No constants are given. Whether binding was seen depends on the method and setting. Binding seen in cells or lysates may run through a third protein. Some results given as binding are weak or reduced against the parent protein; the word gives no strength. Tags and fused reporters may be left off the sequences shown. Blank lines part the entries; values can stand above or below the molecule they belong to.
Legend:
[1] = target: T1, GST-CaRtg1 (C. albicans) (UniProt Q5APP3); experiment: pull-down; GST-Rtg1 present in E. coli cell lysates immobilized onto glutathione Sepharose-4B beads; E. coli cell lysates containing MBP-Rtg3/RtgX added; after washing, beads analysed by SDS-PAGE and Coomassie Brilliant Blue staining; only the target purified
T1 sequence: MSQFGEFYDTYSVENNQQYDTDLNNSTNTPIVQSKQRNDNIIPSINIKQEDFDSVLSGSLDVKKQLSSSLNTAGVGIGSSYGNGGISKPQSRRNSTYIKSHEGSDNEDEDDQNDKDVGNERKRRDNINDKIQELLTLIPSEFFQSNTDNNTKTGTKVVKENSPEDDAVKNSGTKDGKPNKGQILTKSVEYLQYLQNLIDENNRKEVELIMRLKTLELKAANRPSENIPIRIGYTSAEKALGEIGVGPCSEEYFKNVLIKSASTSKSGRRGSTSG

Amino acid sequences for entries named in this document (tags omitted).
UniProt A0A1D8PF20: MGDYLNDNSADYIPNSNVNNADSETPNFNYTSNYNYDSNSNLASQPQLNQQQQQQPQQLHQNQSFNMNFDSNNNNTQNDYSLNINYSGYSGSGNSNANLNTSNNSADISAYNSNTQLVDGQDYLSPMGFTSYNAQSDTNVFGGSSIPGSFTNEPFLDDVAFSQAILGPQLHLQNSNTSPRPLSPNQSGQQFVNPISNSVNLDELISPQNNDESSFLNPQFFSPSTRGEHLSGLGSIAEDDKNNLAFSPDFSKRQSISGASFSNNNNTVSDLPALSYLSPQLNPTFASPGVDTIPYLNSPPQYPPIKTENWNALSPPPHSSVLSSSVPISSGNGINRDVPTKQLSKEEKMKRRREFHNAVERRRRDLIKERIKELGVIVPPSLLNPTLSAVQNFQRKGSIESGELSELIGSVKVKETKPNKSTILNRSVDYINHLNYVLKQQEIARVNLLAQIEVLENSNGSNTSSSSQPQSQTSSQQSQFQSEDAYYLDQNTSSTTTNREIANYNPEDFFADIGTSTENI

[2] = target: T2, GST-ScRtg1 (S. cerevisiae) (UniProt P32607); experiment: as above
T2 sequence: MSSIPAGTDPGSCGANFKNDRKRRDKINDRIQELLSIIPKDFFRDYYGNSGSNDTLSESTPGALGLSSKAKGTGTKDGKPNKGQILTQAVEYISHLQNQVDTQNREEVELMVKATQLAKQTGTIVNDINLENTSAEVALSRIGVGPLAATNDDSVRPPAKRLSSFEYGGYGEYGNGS

binding [1]: binds
Molecule: MBP-CaRtg3 (from UniProt A0A1D8PF20 1-520)

binding [2]: binds
B1: MBP-ScRtg3 (protein, UniProt P38165 1-486)
chain: MMNNNESEAENQRLLDELMNQTKVLQETLDFSLVTPTPHHNDDYKIHGSAYPGGETPAQQHEKLSYINTHNSNDNNNLMGSQARSNSQTPTASTIYEEAESQSSYLDDMFRTSQGGRPVTQNSISSIGQGPLRSSYSMAYDSPVDRAMNTPLQQQEGLKAELPHDFLFQHGTDDTMYNLTDDLSSSLSSSINSDMMTPNTYSSSFSYNPQSLGPASVSSTYSPKVRSPSSSFRAGSFLSSSFRHGSINTPRTRHTSISSNMTENIGPGSVPKILGGLTSDEKLRRKREFHNAVERRRRELIKQKIKELGQLVPPSLLNYDDLGKQIKPNKGIILDRTVEYLQYLAEILEIQARKKKALLAKIKELEEKKSSVAALSPFTNNHHASSGQNNSENSEERIIDIRSVPNALMNEQNSKAELHNWEPPLYDSVGNHNHAGTMESHPHTNIHEELKEFLSGDLIEAEDNAKLMFGDDNSNPADYLLEFGSG

From paper PMC12781876
